Source: paper PMC11885570
Where two headings read alike, the source gives them in different places. These are yes or no findings as the source states them, for the method shown. In cells and extracts the contact can be indirect. These calls come from enrichment with a bait or labelling near it, and not all partners need be listed.

The chains behind the UniProt entries cited, without tags or fusion partners.
UniProt O60488: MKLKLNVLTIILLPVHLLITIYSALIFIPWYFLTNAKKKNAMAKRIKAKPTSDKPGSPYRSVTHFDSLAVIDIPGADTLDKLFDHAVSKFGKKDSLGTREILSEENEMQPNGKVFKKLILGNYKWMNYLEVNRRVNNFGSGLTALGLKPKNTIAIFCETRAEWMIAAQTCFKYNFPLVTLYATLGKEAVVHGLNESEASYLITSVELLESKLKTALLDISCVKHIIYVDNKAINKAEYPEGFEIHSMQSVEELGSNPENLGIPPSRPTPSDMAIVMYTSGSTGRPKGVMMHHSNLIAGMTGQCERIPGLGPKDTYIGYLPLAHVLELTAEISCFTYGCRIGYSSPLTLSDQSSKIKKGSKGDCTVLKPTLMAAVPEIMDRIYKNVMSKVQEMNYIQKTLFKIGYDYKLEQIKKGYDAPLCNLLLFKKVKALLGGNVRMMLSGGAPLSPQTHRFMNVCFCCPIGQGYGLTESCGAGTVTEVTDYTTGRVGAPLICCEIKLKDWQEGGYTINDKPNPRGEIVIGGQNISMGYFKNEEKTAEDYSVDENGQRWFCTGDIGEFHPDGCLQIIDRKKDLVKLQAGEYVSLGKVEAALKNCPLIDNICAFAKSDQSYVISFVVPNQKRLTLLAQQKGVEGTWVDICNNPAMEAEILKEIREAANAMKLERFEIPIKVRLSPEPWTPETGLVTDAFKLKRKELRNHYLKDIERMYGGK
UniProt O14929: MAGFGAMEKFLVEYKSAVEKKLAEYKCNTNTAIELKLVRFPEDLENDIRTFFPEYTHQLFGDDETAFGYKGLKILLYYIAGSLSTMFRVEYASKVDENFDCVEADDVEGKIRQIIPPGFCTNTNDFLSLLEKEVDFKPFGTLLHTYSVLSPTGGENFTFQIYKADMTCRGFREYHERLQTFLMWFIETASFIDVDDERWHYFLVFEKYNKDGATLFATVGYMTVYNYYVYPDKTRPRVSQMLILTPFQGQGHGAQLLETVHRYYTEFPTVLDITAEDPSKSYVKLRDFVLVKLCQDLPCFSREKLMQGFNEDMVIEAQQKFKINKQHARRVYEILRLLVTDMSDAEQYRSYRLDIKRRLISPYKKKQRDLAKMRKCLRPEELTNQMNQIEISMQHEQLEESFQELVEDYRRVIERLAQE

Key:
[1] = target: acyl-CoA synthase long-chain family member 4 (ACSL4), endogenous in NPC cells (human (endogenous in NPC cells)) (UniProt O60488); assay: affinity purification with mass spectrometry; SUNE1 cell lysate with ACSL4 antibody and magnetic beads overnight at 4 °C, three washes, mass spectrometry of the bound proteins
[2] = target: acyl-CoA synthase long-chain family member 4 (ACSL4), endogenous in NPC cells (human (endogenous in NPC cells)) (UniProt O60488); assay: as above; remark: listed apart in the source

| binding [1] | binding [2] | Molecule |
| --- | --- | --- |
| binds |  | histone acetyltransferase 1 (HAT1), endogenous in NPC cells (from UniProt O14929 1-419) (enzyme) |
|  | binds | ACAT1, endogenous in SUNE1 cells (enzyme, UniProt P24752 34-427) VSKPTLKEVVIVSATRTPIGSFLGSLSLLPATKLGSIAIQGAIEKAGIPKEEVKEAYMGNVLQGGEGQAPTRQAVLGAGLPISTPCTTINKVCASGMKAIMMASQSLMCGHQDVMVAGGMESMSNVPYVMNRGSTPYGGVKLEDLIVKDGLTDVYNKIHMGSCAENTAKKLNIARNEQDAYAINSYTRSKAAWEAGKFGNEVIPVTVTVKGQPDVVVKEDEEYKRVDFSKVPKLKTVFQKENGTVTAANASTLNDGAAALVLMTADAAKRLNVTPLARIVAFADAAVEPIDFPIAPVYAASMVLKDVGLKKEDIAMWEVNEAFSLVVLANIKMLEIDPQKVNINGGAVSLGHPIGMSGARIVGHLTHALKQGEYGLASICNGGGGASAMLIQKL |
|  | binds | F-box protein 10 (FBXO10), endogenous in NPC cells (protein, UniProt Q9UK96 1-956) MEAGGLPLELWRMILAYLHLPDLGRCSLVCRAWYELILSLDSTRWRQLCLGCTECRHPNWPNQPDVEPESWREAFKQHYLASKTWTKNALDLESSICFSLFRRRRERRTLSVGPGREFDSLGSALAMASLYDRIVLFPGVYEEQGEIILKVPVEIVGQGKLGEVALLASIDQHCSTTRLCNLVFTPAWFSPIMYKTTSGHVQFDNCNFENGHIQVHGPGTCQVKFCTFKNTHIFLHNVPLCVLENCEFVGSENNSVTVEGHPSADKNWAYKYLLGLIKSSPTFLPTEDSDFLMSLDLESRDQAWSPKTCDIVIEGSQSPTSPASSSPKPGSKAGSQEAEVGSDGERVAQTPDSSDGGLSPSGEDEDEDQLMYRLSYQVQGPRPVLGGSFLGPPLPGASIQLPSCLVLNSLQQELQKDKEAMALANSVQGCLIRKCLFRDGKGGVFVCSHGRAKMEGNIFRNLTYAVRCIHNSKIIMLRNDIYRCRASGIFLRLEGGGLIAGNNIYHNAEAGVDIRKKSNPLILCNQIHHGLRSGIVVLGNGKGIIRNNQIFSNKEAGIYILYHGNPVVSGNHIFKGRAAGIAVNENGKGLITENVIRENQWGGVDIRRGGIPVLRSNLICFGYSDGVVVGDEGKGLIEGNTIYANKGCGVWMMSSSLPHVTSNHVSYNGLYGVAVFSQKDGSSELPRGHRAQENFSEDGDAILWETELEKEDDPLRRPITIALVESNSINHNGASGLYVQSSEALHVITNVIHANGDRGITVAQSSQPTRVANNSISCNRQSGVKVEAQCKVELRGNGIYDNRGHGIITKGDSTIVIENDIIGNRGSGLQLLPRSDTKVIKNRIHSFRAYGIAVRGRAKALVQENIIFQGKTSKTIFQQISNNRECIMQNNKFLVFKKKSDTWRLVNPPARPHLENSLRRPSAAHNGQKVTAMATRITARVEGGYHSNRSVFCTIL |
